Laboratory results published in PubChem BioAssay AID504847 (National Center for Advancing Translational Sciences (NCATS), 2011).
The campaign covered roughly 400,000 compounds. About 3,700 (0.93%) were called active. Inconclusive means that the source gave no clear call. Such entries were picked first, then a sample of the others. The call rests on the fitted dose curve; in most records, active means well fitted inhibition curve with a large enough effect; inconclusive means small, poorly fitted or top-dose-only effect, or another doubt; inactive means no such curve, though single readings can be large or run the other way. A potency beside an inconclusive call is a rough fit, not a confirmed value.

The chains behind the UniProt entries cited, without tags or fusion partners.
UniProt P11473, whole entry, looked up: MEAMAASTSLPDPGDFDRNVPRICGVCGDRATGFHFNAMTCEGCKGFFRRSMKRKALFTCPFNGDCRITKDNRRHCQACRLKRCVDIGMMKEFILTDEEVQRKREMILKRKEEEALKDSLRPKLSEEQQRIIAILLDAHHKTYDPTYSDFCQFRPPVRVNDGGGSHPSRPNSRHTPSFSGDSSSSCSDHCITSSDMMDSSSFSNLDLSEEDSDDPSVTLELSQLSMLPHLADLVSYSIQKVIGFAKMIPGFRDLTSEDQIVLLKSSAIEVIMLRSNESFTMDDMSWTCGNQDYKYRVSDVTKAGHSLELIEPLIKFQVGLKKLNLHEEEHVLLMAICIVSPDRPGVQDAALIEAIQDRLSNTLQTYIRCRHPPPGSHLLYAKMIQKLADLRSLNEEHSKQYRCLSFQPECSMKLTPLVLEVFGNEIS

What follows are compounds tested against Vitamin D3 receptor (Homo sapiens) (UniProt P11473) (assay: Inhibitors of the vitamin D receptor (VDR): qHTS). Settings: VDR-SRC2-3 peptide fluorescence polarization, 2 h; max response, negative = inhibition: active compounds read low.
In short: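 Fluorescence polarization assay of small-molecule disruption of VDR binding to coregulator peptide SRC2-3. Compounds and controls pin-transferred, then read after 2 h incubation at ambient room temperature.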
On the % scale 0 is the no-effect control and ±100 the full control effect; potency means the concentration at half of the fitted maximal effect.

Potency, inconclusive:
COc1cccc2sc(NN)nc12 89.1 µM [inhibitor, single point]
CC1=CC(=NOC(=O)c2cccc([N+](=O)[O-])c2)C=C(C)C1=O 56.2 µM [inhibitor, partial curve, poor fit]
Cc1ccc(C(=S)N2CCN(Cc3ccccc3)CC2)cc1 89.1 µM [inhibitor, single point]
O=C(Nc1ncn[nH]1)c1ccc(Cl)c(Cl)c1 89.1 µM [inhibitor, single point]
C=C1C(=O)OC2CC1C(O)CC(C)=CCCC(C)=CC(O)CC2C (configuration not stated) 89.1 µM [inhibitor, single point]
COc1ccc(CNc2ncncc2-c2ccc3c(c2)OCO3)c(OC)c1 56.2 µM [inhibitor, partial curve, poor fit]
CCn1c(SCC(=O)N/N=C/C=C/c2ccccc2[N+](=O)[O-])nnc1-c1ccccc1 126 µM [inhibitor, partial curve, poor fit]
COc1cccc(Cn2c(=O)c(CCc3ccccc3)nc3cnc(N4CCNCC4)nc32)c1 50.1 µM [inhibitor, partial curve, poor fit]
C=C1C[C@H](OC(=O)C(C)(O)CCl)C2C(=C)C(=O)O[C@@H]2C2C1C[C@H](O)[C@]2(O)CCl (some centres not stated) 50.1 µM [inhibitor, partial curve]
O=C1N/C(=N\S(=O)(=O)Cc2ccccc2)S/C1=C/c1cccc([N+](=O)[O-])c1 56.2 µM [inhibitor, partial curve, poor fit]
S=c1nccc(-c2ccc(Cl)cc2)[nH]1 56.2 µM [inhibitor, partial curve, poor fit]
COc1ccc(CC(=O)Nc2nc3ccccc3s2)cc1S(=O)(=O)N1CCOCC1 35.5 µM [inhibitor, single point]
COc1ccc(Cl)cc1-c1ccc(C(=O)O)s1 89.1 µM [inhibitor, partial curve]
CCC(C)NC(=O)CSc1nc(-c2ccc(F)cc2)cc(C(F)(F)F)n1 (configuration not stated) 100 µM [inhibitor, partial curve, poor fit]
Cc1ccc(S(=O)(=O)Nc2ccc(C(N)=O)cc2)cc1[N+](=O)[O-] 56.2 µM [inhibitor, partial curve, poor fit]
COc1ccc(CCN(C)Cc2cccc3ccccc23)cc1OC 5.01 µM [inhibitor, partial curve, poor fit]
COc1ccc(C(=O)NC(C)c2nnc(SCC(=O)NC3CCCCC3)n2C)cc1 (configuration not stated) 89.1 µM [inhibitor, single point]
NC(=O)c1ccsc1NC(=O)COC(=O)COc1ccc(C=O)cc1 100 µM [inhibitor, single point]
Cn1c(N)c(C(C[N+](=O)[O-])c2ccccc2Cl)c(=O)n(C)c1=O (configuration not stated) 89.1 µM [inhibitor, single point]
Cc1cccc(NC(=O)CSC(N)=O)c1C 56.2 µM [inhibitor, partial curve, poor fit]
CCOC(=O)c1c(C)[nH]c(C2=NNC(=Nc3ccccc3OC)SC2)c1C 50.1 µM [inhibitor, partial curve, poor fit]
COc1ccccc1/C=C/C(=O)OCC(=O)NC(=O)NC1CCCC1 0.631 µM [inhibitor, full curve, poor fit]
CN(C)c1cc(-c2cccc(NS(C)(=O)=O)c2)ncn1 100 µM [inhibitor, single point]
O=C(CC1C(=O)NCCN1Cc1ccc(-c2ccccc2)cc1)NCc1ccccc1 (configuration not stated) 79.4 µM [inhibitor, partial curve, poor fit]
O=C(Nc1ccccc1C(F)(F)F)NC1(C(=O)N2CCOCC2)CCCCC1 79.4 µM [inhibitor, partial curve, poor fit]
COc1ccc(C=NNC(=S)NN=Cc2ccc(OC)c(OC)c2)cc1OC 15.8 µM [inhibitor, partial curve, poor fit]
CCc1cccc(OCC(=O)Nc2ccc(C)c(S(=O)(=O)N3CCCCCC3)c2)c1 56.2 µM [inhibitor, partial curve, poor fit]
Cc1cc(C(=O)C(=O)O)c(C)n1-c1ccc(Cl)c(Cl)c1 79.4 µM [inhibitor, partial curve, poor fit]
Cc1cccc(CSCCNC(=O)c2ccc(CN3CCOCC3)cc2)c1 100 µM [inhibitor, partial curve, poor fit]
O=C(Cn1ncc2c3ccccc3n(Cc3ccccc3)c2c1=O)NCCN1CCOCC1 79.4 µM [inhibitor, partial curve, poor fit]
CC1=NN(C(N)=S)C(=O)C1N=Nc1c(Cl)cc([N+](=O)[O-])cc1Cl (configuration not stated) 89.1 µM [inhibitor, partial curve]
Cc1ccc(CN(C(=O)c2ccc([N+](=O)[O-])cc2)C2CCS(=O)(=O)C2)o1 (configuration not stated) 20 µM [inhibitor, partial curve, poor fit]
CCCCC1=CC2=C(OC(C)=O)C(=O)C(C)(OC(=O)C3CCCC3)C(=O)C2=CO1 (configuration not stated) 44.7 µM [inhibitor, partial curve]
CCc1ccc(C2C(C#N)=C(N)C(C#N)(C#N)C3=CCC(C(C)(C)C)CC32)cc1 (configuration not stated) 56.2 µM [inhibitor, partial curve, poor fit]
O=C(C(=O)N1CCN(c2ccc(F)cc2)CC1)N1CCCCC1 14.1 µM [inhibitor, partial curve, poor fit]
COc1ccccc1C(C[N+](=O)[O-])c1c(N)n(C)c(=O)n(C)c1=O (configuration not stated) 89.1 µM [inhibitor, single point]
Cc1nc(NC(=O)c2ccc([N+](=O)[O-])cc2Cl)sc1C(=O)N(C)C 89.1 µM [inhibitor, single point]

Potency, active:
O=C(O)c1ccc2c(=O)n(Cc3ccccc3)c(SCc3ccc([N+](=O)[O-])cc3)nc2c1 79.4 µM
CC(=O)Nc1ccc(-c2nnc(SCC(=O)c3ccc4c(c3)Cc3ccccc3-4)n2C)cc1 50.1 µM
CCCOc1ccc(C(=O)CCN2CCCCC2)cc1 39.8 µM
N#C/C(=C1\C(=O)Nc2c(Cl)cc(Cl)cc21)c1nnc2n1CCCCC2 28.2 µM
CCCCCCCCCCCCCCOc1ccc(C(=O)O)o1 11.2 µM
CC[C@@H](C)[C@H](NC(=O)OC(C)(C)C)c1nnc(S(=O)(=O)Cc2cc(C)ccc2C)o1 11.2 µM

Max response, negative = inhibition, inactive:
CCN(CC)CCCNCC(=O)Nc1cc(C)on1 -0.753%
O=C(Nc1ccc(N2CCOCC2)c(F)c1)c1cccs1 6.32%
CCn1c(SCC(=O)Nc2ccc(OC)c(OC)c2)nc2c(c1=O)SCC2 -22.3%
Fc1ccc(OCCOCCN2CCCC2)cc1 14.8%
O=c1[nH]c(=O)n(C2CC(O)C(CO)O2)cc1Br (configuration not stated) 6.42%
COc1ccc(Cc2nn3c(-c4ccccc4OC)nnc3s2)cc1 8.98%
CCOc1cc(CNCc2ccc(C(=O)O)cc2)ccc1OC 13.9%
COc1ccccc1C(c1c(O)nc(SC)[nH]c1=O)c1c(O)nc(SC)[nH]c1=O -9.31%
CCn1c(C(=O)N2CCC(C(=O)N3CCN(c4ccccn4)CC3)CC2)cc2sccc21 2.83%
CCOC(=O)CNS(=O)(=O)c1ccc(C(=O)O)cc1 -4.38%
O=C(NCc1ccc(Cl)cc1)C1CCN(S(=O)(=O)Cc2ccccc2)CC1 14.9%
CCCCCc1cc(=O)oc2c(C(CCN3CCCC(C)C3)c3ccc(N(C)C)cc3)c(OC)cc(OC)c12 (configuration not stated) -1.64%
Cn1c(=O)n(C/C=C/c2ccccc2)c(=O)c2c1nc1n2CCN1c1ccccc1 4.91%
N#Cc1ccc(C(=O)NCC2CCCCC2)cc1 -0.228%
Cc1ccc(Cl)cc1S(=O)(=O)N1CCC(C(=O)NC2CCN(Cc3ccccc3)CC2)CC1 19.3%
CC(=O)Nc1ccn(C2OC(C(COC(C)=O)NC(=O)C(COCc3ccccc3)NC(=O)OC(C)(C)C)C(OC(C)=O)C2OC(C)=O)c(=O)n1 (configuration not stated) -4.05%
CCC1Nc2ncnc(N3CCN(c4ccccc4)CC3)c2N(Cc2ccc(OC)cc2)C1=O (configuration not stated) 19.8%
COc1ccc(C)cc1NC(=O)C(=O)NNC(=O)COc1ccc(Cl)cc1 -19.6%
CCOC(=O)c1[nH]c(C)c(C(=O)OCC(=O)NCc2ccc(OC)c(OC)c2)c1C 11%
Cc1ccc(N2C(=O)N(CC(=O)C(C)(C)C)c3ccccc3S2(=O)=O)cc1C 6.13%
CC1Cc2ccccc2N1C(=O)COC(=O)Cc1ccc(F)cc1 (configuration not stated) -3.1%
CN(C)C(=O)c1ccc(-c2ccc3ncnc(N4CCOCC4)c3c2)cc1 2.37%
COc1cc(OC)c(C(=O)OCC(=O)Nc2ccc(S(=O)(=O)N3CCOCC3)cc2)cc1OC -15.4%
COc1cc(C2C=C(c3cccs3)Nc3ncnn32)cc(OC)c1OC (configuration not stated) 2.16%

Pulled by compound from above:
Max response, negative = inhibition, inactive:
Fc1ccc(OCCOCCN2CCCC2)cc1 14.8%
O=c1[nH]c(=O)n(C2CC(O)C(CO)O2)cc1Br (configuration not stated) 6.42%
COc1ccc(C)cc1NC(=O)C(=O)NNC(=O)COc1ccc(Cl)cc1 -19.6%

Ordered by heavy-atom count (ascending): 3 of the compounds above.
Max response, negative = inhibition, inactive:
COc1ccc(C)cc1NC(=O)C(=O)NNC(=O)COc1ccc(Cl)cc1 -19.6%
Cc1ccc(Cl)cc1S(=O)(=O)N1CCC(C(=O)NC2CCN(Cc3ccccc3)CC2)CC1 19.3%
COc1cc(OC)c(C(=O)OCC(=O)Nc2ccc(S(=O)(=O)N3CCOCC3)cc2)cc1OC -15.4%
